Experimental data as given in publication PMC9141838.
Read-outs that look alike come from different tables or passages of the source. No constants are given. Whether binding was seen depends on the method and setting. In cells and extracts the contact can be indirect. These calls come from enrichment with a bait or labelling near it, and not all partners need be listed. Sequences can lack the tags named with a protein. Values belong to the molecule of their own block, whether it stands above or below them.

Amino acid sequences for entries named in this document (tags omitted).
UniProt Q9BUQ8: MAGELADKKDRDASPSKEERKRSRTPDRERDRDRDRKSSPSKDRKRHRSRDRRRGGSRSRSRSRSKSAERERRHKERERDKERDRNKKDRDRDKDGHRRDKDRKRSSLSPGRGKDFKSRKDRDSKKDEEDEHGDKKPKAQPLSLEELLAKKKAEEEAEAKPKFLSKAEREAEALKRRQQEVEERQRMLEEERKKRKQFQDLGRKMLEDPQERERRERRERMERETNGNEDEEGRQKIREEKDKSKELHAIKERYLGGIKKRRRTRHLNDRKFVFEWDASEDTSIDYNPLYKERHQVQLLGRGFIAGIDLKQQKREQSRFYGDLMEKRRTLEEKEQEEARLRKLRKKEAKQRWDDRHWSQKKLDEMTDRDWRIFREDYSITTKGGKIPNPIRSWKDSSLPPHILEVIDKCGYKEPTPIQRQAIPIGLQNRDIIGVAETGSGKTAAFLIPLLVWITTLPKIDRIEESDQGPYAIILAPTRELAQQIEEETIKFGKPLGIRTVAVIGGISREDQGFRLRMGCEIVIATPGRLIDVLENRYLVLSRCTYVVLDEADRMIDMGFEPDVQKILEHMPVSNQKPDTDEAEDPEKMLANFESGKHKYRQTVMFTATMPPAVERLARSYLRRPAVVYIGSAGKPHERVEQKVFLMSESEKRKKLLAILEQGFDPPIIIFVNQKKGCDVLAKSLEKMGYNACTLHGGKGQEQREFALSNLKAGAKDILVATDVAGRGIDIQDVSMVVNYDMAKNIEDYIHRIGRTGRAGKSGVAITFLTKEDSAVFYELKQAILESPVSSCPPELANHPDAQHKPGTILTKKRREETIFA

What was measured:
[1] = target: T1, Flag-tagged USP39 (ubiquitin-specific protease 39) (human) (UniProt Q53GS9)
T1 sequence: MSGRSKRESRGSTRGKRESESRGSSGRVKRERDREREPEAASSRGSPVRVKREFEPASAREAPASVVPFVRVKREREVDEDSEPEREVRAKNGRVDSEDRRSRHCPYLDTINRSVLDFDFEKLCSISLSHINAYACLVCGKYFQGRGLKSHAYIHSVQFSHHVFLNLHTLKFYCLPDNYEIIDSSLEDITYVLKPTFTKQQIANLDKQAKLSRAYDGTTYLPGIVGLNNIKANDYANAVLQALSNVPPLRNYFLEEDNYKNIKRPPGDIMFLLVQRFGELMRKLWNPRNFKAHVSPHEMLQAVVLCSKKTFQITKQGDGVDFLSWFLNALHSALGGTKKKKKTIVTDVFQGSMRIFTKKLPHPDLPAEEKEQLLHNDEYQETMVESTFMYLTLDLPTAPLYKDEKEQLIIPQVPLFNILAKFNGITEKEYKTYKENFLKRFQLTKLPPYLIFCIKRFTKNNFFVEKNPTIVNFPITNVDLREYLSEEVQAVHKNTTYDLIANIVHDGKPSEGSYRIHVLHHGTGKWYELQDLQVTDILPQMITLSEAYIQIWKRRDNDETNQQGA

[2] = target: T1, Flag-tagged USP39 (ubiquitin-specific protease 39) (human); remark: listed apart in the source

Molecule: DDX23 (from UniProt Q9BUQ8 1-820)
binding [1]: binds

B3: PRPF3 (protein, UniProt O43395 1-683)
chain: MALSKRELDELKPWIEKTVKRVLGFSEPTVVTAALNCVGKGMDKKKAADHLKPFLDDSTLRFVDKLFEAVEEGRSSRHSKSSSDRSRKRELKEVFGDDSEISKESSGVKKRRIPRFEEVEEEPEVIPGPPSESPGMLTKLQIKQMMEAATRQIEERKKQLSFISPPTPQPKTPSSSQPERLPIGNTIQPSQAATFMNDAIEKARKAAELQARIQAQLALKPGLIGNANMVGLANLHAMGIAPPKVELKDQTKPTPLILDEQGRTVDATGKEIELTHRMPTLKANIRAVKREQFKQQLKEKPSEDMESNTFFDPRVSIAPSQRQRRTFKFHDKGKFEKIAQRLRTKAQLEKLQAEISQAARKTGIHTSTRLALIAPKKELKEGDIPEIEWWDSYIIPNGFDLTEENPKREDYFGITNLVEHPAQLNPPVDNDTPVTLGVYLTKKEQKKLRRQTRREAQKELQEKVRLGLMPPPEPKVRISNLMRVLGTEAVQDPTKVEAHVRAQMAKRQKAHEEANAARKLTAEQRKVKKIKKLKEDISQGVHISVYRVRNLSNPAKKFKIEANAGQLYLTGVVVLHKDVNVVVVEGGPKAQKKFKRLMLHRIKWDEQTSNTKGDDDEESDEEAVKKTNKCVLVWEGTAKDRSFGEMKFKQCPTENMAREHFKKHGAEHYWDLALSESVLESTD
binding [2]: binds

Results, then the molecule that gave them:

binding [1]: binds
B1: SART1 (protein, UniProt O43290 1-800)
chain: MGSSKKHRGEKEAAGTTAAAGTGGATEQPPRHREHKKHKHRSGGSGGSGGERRKRSRERGGERGSGRRGAEAEARSSTHGRERSQAEPSERRVKREKRDDGYEAAASSKTSSGDASSLSIEETNKLRAKLGLKPLEVNAIKKEAGTKEEPVTADVINPMALRQREELREKLAAAKEKRLLNQKLGKIKTLGEDDPWLDDTAAWIERSRQLQKEKDLAEKRAKLLEEMDQEFGVSTLVEEEFGQRRQDLYSARDLQGLTVEHAIDSFREGETMILTLKDKGVLQEEEDVLVNVNLVDKERAEKNVELRKKKPDYLPYAEDESVDDLAQQKPRSILSKYDEELEGERPHSFRLEQGGTADGLRERELEEIRAKLRLQAQSLSTVGPRLASEYLTPEEMVTFKKTKRRVKKIRKKEKEVVVRADDLLPLGDQTQDGDFGSRLRGRGRRRVSEVEEEKEPVPQPLPSDDTRVENMDISDEEEGGAPPPGSPQVLEEDEAELELQKQLEKGRRLRQLQQLQQLRDSGEKVVEIVKKLESRQRGWEEDEDPERKGAIVFNATSEFCRTLGEIPTYGLAGNREEQEELMDFERDEERSANGGSESDGEENIGWSTVNLDEEKQQQDFSASSTTILDEEPIVNRGLAAALLLCQNKGLLETTVQKVARVKAPNKSLPSAVYCIEDKMAIDDKYSRREEYRGFTQDFKEKDGYKPDVKIEYVDETGRKLTPKEAFRQLSHRFHGKGSGKMKTERRMKKLDEEALLKKMSSSDTPLGTVALLQEKQKAQKTPYIVLSGSGKSMNANTITK

binding [2]: binds
B2: PRP6 (protein, UniProt O94906 1-941)
chain: MNKKKKPFLGMPAPLGYVPGLGRGATGFTTRSDIGPARDANDPVDDRHAPPGKRTVGDQMKKNQAADDDDEDLNDTNYDEFNGYAGSLFSSGPYEKDDEEADAIYAALDKRMDERRKERREQREKEEIEKYRMERPKIQQQFSDLKRKLAEVTEEEWLSIPEVGDARNKRQRNPRYEKLTPVPDSFFAKHLQTGENHTSVDPRQTQFGGLNTPYPGGLNTPYPGGMTPGLMTPGTGELDMRKIGQARNTLMDMRLSQVSDSVSGQTVVDPKGYLTDLNSMIPTHGGDINDIKKARLLLKSVRETNPHHPPAWIASARLEEVTGKLQVARNLIMKGTEMCPKSEDVWLEAARLQPGDTAKAVVAQAVRHLPQSVRIYIRAAELETDIRAKKRVLRKALEHVPNSVRLWKAAVELEEPEDARIMLSRAVECCPTSVELWLALARLETYENARKVLNKARENIPTDRHIWITAAKLEEANGNTQMVEKIIDRAITSLRANGVEINREQWIQDAEECDRAGSVATCQAVMRAVIGIGIEEEDRKHTWMEDADSCVAHNALECARAIYAYALQVFPSKKSVWLRAAYFEKNHGTRESLEALLQRAVAHCPKAEVLWLMGAKSKWLAGDVPAARSILALAFQANPNSEEIWLAAVKLESENDEYERARRLLAKARSSAPTARVFMKSVKLEWVQDNIRAAQDLCEEALRHYEDFPKLWMMKGQIEEQKEMMEKAREAYNQGLKKCPHSTPLWLLLSRLEEKIGQLTRARAILEKSRLKNPKNPGLWLESVRLEYRAGLKNIANTLMAKALQECPNSGILWSEAIFLEARPQRRTKSVDALKKCEHDPHVLLAVAKLFWSQRKITKAREWFHRTVKIDSDLGDAWAFFYKFELQHGTEEQQEEVRKRCESAEPRHGELWCAVSKDIANWQKKIGDILRLVAGRIKNTF
